At least one structure is not confirmed: it was looked up by name or label, or the drawing left a doubt.
Test system: Wistar rats
Test: PCA-induced Wistar rat premature ejaculation model
Type: in vivo
Conditions: FIG. 4
Procedure: Male Wistar rats with a weight of about 300 g were adapted for one week before the experiment was started. On the day of the experiment, the animals were anesthetized with a combination of 20 mg/kg of Zoletil 50 via i.p. and 8 mg/kg of xylazine via i.p., and the body temperature was maintained at 37° C. with a thermal insulation blanket. Exposed common carotid artery was intubated with PE50 to monitor real-time arterial pressure (i.e. systolic pressure, diastolic pressure, and mean arterial pressure). The seminal vesicles and cavernosal muscles of the animals were exposed. The stable baselines of the pressure of the seminal vesicle and the cavernosal myoelectricity were recorded for 10 min. Then the drug was administered through the tail vein for the dapoxetine group, and the tested compound was orally administered for the tested compound group (for the PE model group, the drug was replaced with a solvent). After 1 min, for inducing PE modeling, 5 mg/kg of PCA was injected intraperitoneally, and then the seminal vesicle pressure curve and the change of bulbospongiosus EMG were continuously recorded for 30 min.
• A. Within 30 min, the actual number of ejaculations of the animals and the latency period of the first ejaculation; • B. Within 30 min, the number of the seminal vesicle contractions, the latency period of the first contraction, the basal pressure and the peak pressure.
The experimental data were expressed by means±S.E.M., and statistical analysis was performed by GraphPad Prism 7.0 software. Single factor variance analysis (One-way ANOVA) was used for comparison between multiple groups, and Dunnett't-test was used for statistical analysis in Post hoc test. Student's t-test was used for comparison between two groups. P<0.05 was considered as a significant difference.

c1ccc2nn(CCCCN3CCN(c4noc5ccccc45)CC3)nc2c1 [Compound A001]
latency period of initial seminal vesicle contraction compared with the PE model group (high dose group (2.0 mg/kg p.o.)): significant increase
latency period of initial seminal vesicle contraction compared with the PE model group (low dose group (0.125 mg/kg p.o.), P>0.05): no statistically significant differences
latency period of initial seminal vesicle contraction compared with the PE model group (medium dose group (0.5 mg/kg p.o.)): significant increase

Reference: patent US20260098034A1, “2H-BENZOTRIAZOLE DERIVATIVE, PREPARATION METHOD THEREFOR, AND PHARMACEUTICAL COMPOSITION CONTAINING SAME” (ORXES THERAPEUTICS CO., LTD., priority 2022, published 2026)
